Data: paper PMC6836825, “K^+ Channel-SEC11 Binding Exchange Regulates SNARE Assembly for Secretory Traffic^1” (Plant Physiology, 2019)

Chains of the proteins cited; added tags and fusions are not shown. Lines headed by an entry give the natural chain unless they say otherwise; changes in a name come on top. Residues count along the entry.
UniProt Q39128, residues 1-63: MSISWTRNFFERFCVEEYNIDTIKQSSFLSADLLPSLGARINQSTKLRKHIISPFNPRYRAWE
UniProt P92960, residues 67-91: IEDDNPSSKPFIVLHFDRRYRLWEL
UniProt Q9ZSD4: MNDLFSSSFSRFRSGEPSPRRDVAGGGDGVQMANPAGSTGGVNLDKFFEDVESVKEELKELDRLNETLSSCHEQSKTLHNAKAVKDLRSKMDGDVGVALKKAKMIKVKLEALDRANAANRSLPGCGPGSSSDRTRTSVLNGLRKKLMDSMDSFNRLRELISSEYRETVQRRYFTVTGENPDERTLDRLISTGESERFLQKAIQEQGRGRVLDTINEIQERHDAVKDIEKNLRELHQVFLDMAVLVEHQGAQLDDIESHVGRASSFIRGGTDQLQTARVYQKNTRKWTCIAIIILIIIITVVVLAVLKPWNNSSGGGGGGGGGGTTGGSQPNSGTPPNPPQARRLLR
UniProt Q9ZTW3: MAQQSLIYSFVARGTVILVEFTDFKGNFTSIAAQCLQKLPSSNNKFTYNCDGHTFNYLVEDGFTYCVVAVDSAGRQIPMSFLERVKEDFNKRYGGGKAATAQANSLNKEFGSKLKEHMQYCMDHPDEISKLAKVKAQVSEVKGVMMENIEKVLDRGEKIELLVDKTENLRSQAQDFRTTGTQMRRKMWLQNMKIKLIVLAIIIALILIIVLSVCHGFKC

Tests used:
[1] = target: KAT1^1–63-Flag6-StrepII (Arabidopsis thaliana) (UniProt Q39128); experiment: pull-down; channel peptide immobilised on Strep-Tactin resin; SNAREs in binary combinations, fixed 5 μM SYP121^ΔC or VAMP721^ΔC with 0, 0.3-, 1- and 3-fold VAMP721^ΔC or SNAP33; overnight at 4°C; SDS-PAGE, Coomassie; both purified
[2] = target: KAT1^1–63-Flag6-StrepII (Arabidopsis thaliana) (UniProt Q39128); experiment: pull-down; channel peptide immobilised on Strep-Tactin resin, mixed together with SYP121^ΔC, SNAP33 and VAMP721^ΔC; overnight at 4°C; SDS-PAGE, Coomassie; both purified
[3] = target: KAT1^1–63-Flag6-StrepII (Arabidopsis thaliana) (UniProt Q39128); experiment: pull-down; channel peptide immobilised on Strep-Tactin resin; cognate SNAREs singly, in binary and in tertiary combinations without and with SEC11 at 0.3-, 1- and 3-fold the concentration of SNAREs; overnight at 4°C; SDS-PAGE, Coomassie; both purified
[4] = target: KAT1^1–63-Flag6-StrepII (Arabidopsis thaliana) (UniProt Q39128); experiment: pull-down; KC1^67–91-Flag3-StrepII or KAT1^1–63-Flag6-StrepII immobilised on Strep-Tactin resin; one prey at a time in 3-fold excess; overnight at 4°C; SDS-PAGE, Coomassie; both purified
[5] = target: KC1^67–91-Flag3-StrepII (Arabidopsis thaliana) (UniProt P92960); experiment: pull-down; channel peptide immobilised on Strep-Tactin resin; SNAREs in binary combinations, fixed 5 μM SYP121^ΔC or VAMP721^ΔC with 0, 0.3-, 1- and 3-fold VAMP721^ΔC or SNAP33; overnight at 4°C; SDS-PAGE, Coomassie; both purified
[6] = target: KC1^67–91-Flag3-StrepII (Arabidopsis thaliana) (UniProt P92960); experiment: SEC; KC1^67–91 peptide comixed with SYP121^ΔC, SNAP33 and VAMP721^ΔC at the start of incubation (Combined); Superdex 200 10/300, 50 mM Tris-HCl, 150 mM NaCl, pH 8.0; SDS-PAGE of fractions; both purified
[7] = target: KC1^67–91-Flag3-StrepII (Arabidopsis thaliana) (UniProt P92960); experiment: pull-down; channel peptide immobilised on Strep-Tactin resin, mixed together with SYP121^ΔC, SNAP33 and VAMP721^ΔC; overnight at 4°C; SDS-PAGE, Coomassie; both purified
[8] = target: KC1^67–91-Flag3-StrepII (Arabidopsis thaliana) (UniProt P92960); experiment: pull-down; channel peptide immobilised on Strep-Tactin resin; cognate SNAREs singly, in binary and in tertiary combinations without and with SEC11 at 0.3-, 1- and 3-fold the concentration of SNAREs; overnight at 4°C; SDS-PAGE, Coomassie; both purified
[9] = target: KC1^67–91-Flag3-StrepII (Arabidopsis thaliana) (UniProt P92960); experiment: pull-down; KC1^67–91-Flag3-StrepII or KAT1^1–63-Flag6-StrepII immobilised on Strep-Tactin resin; one prey at a time in 3-fold excess; overnight at 4°C; SDS-PAGE, Coomassie; both purified

Measured: binding

SYP121^ΔC-Flag-6His (from UniProt Q9ZSD4) (domain or fragment)
binds: [1] | [2] | [3] | [4]

VAMP721^ΔC-Flag-6His (from UniProt Q9ZTW3) (domain or fragment)
binds: all assays above

No constants are given. Whether binding was seen depends on the method and setting. Binding can be weak; no strength is given.
